Assay [1] deals with T1, hGPC3-ΔHS (human, UniProt P51654 25-559, limits assumed).
T1 construct: also called hGPC3-ΔHS protein
In words: SPR, antibody captured by anti-human Fc antibodies on CM5 chip, hGPC3 injected first, then hCD47. For orientation: SPR reads the build-up and loss of mass on a sensor chip optically.

Sequences of proteins named here, by UniProt entry; tags and fusion partners are left off. A change or cut given only in a name is not applied to a line headed by its entry. A line that says so, or that is headed by a name, gives the form on record, which may keep a tag or linker. Residues count along the entry.
hGPC3-ΔHS (P51654, form named): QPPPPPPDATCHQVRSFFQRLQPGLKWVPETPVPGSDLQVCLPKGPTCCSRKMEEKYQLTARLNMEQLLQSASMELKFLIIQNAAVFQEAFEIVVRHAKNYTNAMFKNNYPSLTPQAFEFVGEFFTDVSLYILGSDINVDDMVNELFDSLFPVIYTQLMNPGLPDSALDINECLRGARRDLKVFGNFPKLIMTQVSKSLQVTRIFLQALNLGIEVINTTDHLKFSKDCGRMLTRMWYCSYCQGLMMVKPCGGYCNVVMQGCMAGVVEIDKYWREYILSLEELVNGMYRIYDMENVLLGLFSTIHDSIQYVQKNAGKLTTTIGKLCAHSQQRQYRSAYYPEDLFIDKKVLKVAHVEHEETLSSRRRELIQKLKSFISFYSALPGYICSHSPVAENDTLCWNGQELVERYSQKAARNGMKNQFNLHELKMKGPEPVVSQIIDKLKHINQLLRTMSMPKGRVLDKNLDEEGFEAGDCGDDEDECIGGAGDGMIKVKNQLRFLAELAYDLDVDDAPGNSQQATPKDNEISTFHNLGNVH
UniProt Q08722, residues 19-139: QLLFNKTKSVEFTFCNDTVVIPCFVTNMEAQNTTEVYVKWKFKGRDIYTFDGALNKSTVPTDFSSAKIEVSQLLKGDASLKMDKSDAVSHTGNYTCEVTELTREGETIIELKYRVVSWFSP

Assay [2] addresses T1, hGPC3-ΔHS. In words: SPR (Biacore T200), IgG1 captured on protein A/G, hGPC3-ΔHS as analyte (FIG. 11C).
Assay [3] has as its target T2, hCD47 protein (SPR analyte of Example 2) (human, UniProt Q08722 19-139, limits assumed). In words: SPR, antibody captured by anti-human Fc antibodies on CM5 chip, hGPC3 injected first, then hCD47.
Assay [4] concerns the target T2, hCD47 protein (SPR analyte of Example 2). In words: SPR (Biacore T200), IgG1 captured on protein A/G, hCD47 protein as analyte (FIG. 11C).

Results are given in words; binding and its absence hold for the method and conditions named. Some results given as binding are weak or reduced against the parent protein; the word gives no strength.

B1: GC33 (Codrituzumab), human IgG1 (antibody, V domains shown)
VH: QVQLVQSGAEVKKPGASVKVSCKASGYTFTDYEMHWVRQAPGQGLEWMGALDPKTGDTAYSQKFKGRVTLTADESTSTAYMELSSLRSEDTAVYYCTRFYSYTYWGQGTLVTVSS
VL: DVVMTQSPLSLPVTPGEPASISCRSSQSLVHSNANTYLHWYLQKPGQSPQLLIYKVSNRFSGVPDRFSGSGSGTDFTLKISRVEAEDVGVYYCSQNTHVPPTFGQGTKLEIK
notes: also called anti-GPC3 mAb
Consider B1, for which the binding result in the assay with hGPC3-ΔHS [1] and with hGPC3-ΔHS [2] was “binds” in each case.

B2: BC18 full-length human IgG1 (antibody, V domains shown)
VH: QVQLQQSGPGLVKPSETLSLTCTVSGDSINYHYWSWIRQPPGKGLEWIGYIYYSGSTTYNPSLKSRVTMSVDPSKNHFSLKLTSVTAADTALYFCARQRGAYDYWGQGTQVTVSS
VL: DIQLTQSPSSVSASVGDRVTIACRASQDIGSRLVWYQQRPGKAPKLLIYAASSLQSGVPSRFSGSGSGTDFTLTISSLQPEDFATYYCQQSYSTPYSFGQGTKLEIK
notes: also called anti-CD47 mAb; parental anti-CD47 mAb
Turning to B2, the binding entry in assay [3] and in assay [4] was “binds” throughout.
